Values quoted from earlier work in patent US9961900B2, “Herbicide formulations” (priority 2012, dated 2018).
Some entries share one result that the patent states for a list of compounds.

Test system: grasses
Details: UV light filtered from treated grasses for 4 hours after application, vs. not filtered

Row | Structure (SMILES) | Increase of efficacy when UV light was filtered
1 | CCON=C(CC)C1=C(O)CC(c2c(C)cc(C)cc2C)CC1=O (racemic) [tralkoxydim, (RS)-2-[(EZ)-1-(ethoxyimino)propyl]-3-hydroxy-5-mesitylcyclohex-2-en-1-one] | 13-55%
2 | CCS[C@H](C)C[C@H]1CC(=O)C(C(CC)=NOC/C=C/Cl)=C(O)C1 (racemic) [clethodim, (5RS)-2-{(1EZ)-1-[(2E)-3-chloroallyloxyimino]propyl}-5-[(2RS)-2-(ethylthio)propyl]-3-hydroxycyclohex-2-en-1-one] | 13-55%
